Source: PubChem BioAssay AID1224830 (NIAID, 2016)
Here is an unselected part of about 18,000 reagents. About 2,900 of all reagents (16%) were called active. 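Calls are made per well; low scores hint the gene aids the LPS response, high scores that it dampens it.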 Unmarked entries are inactive. Repeated entries: four replicate wells of each siRNA pool.

- Aim: 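Host factors that control LPS-induced TNF expression in human macrophages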 (primary screen)
- Cells: human THP-1 monocytic leukaemia cells, TNF dual-luciferase reporter clone, PMA-differentiated to macrophage-like cells
- Knock-down reagent: siRNA pool against human genes, 50 nM
- Time to read-out: LPS for 4 h, given about 3 days after siRNA transfection
- Challenge: bacterial LPS (TLR4 ligand), 10 ng/ml
- Measurement: 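TNF firefly reporter luminescence divided by renilla, normalised to the plate median, then turned into a robust z-score for each replicate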
- Scale: TNF reporter robust z-score: higher = stronger TNF reporter response to LPS
- Rule for the call: 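Each well counts as active if its z-score is over 2.8 or under -1.5; controls are left without a call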

{"gene": "USP12", "TNF reporter robust z-score": 0.01}
{"gene": "USP12", "TNF reporter robust z-score": -0.01}
{"gene": "USP12", "TNF reporter robust z-score": 0.43}
{"gene": "USP12", "TNF reporter robust z-score": -0.23}
{"gene": "LEFTY2", "TNF reporter robust z-score": 0.54}
{"gene": "LEFTY2", "TNF reporter robust z-score": 1.09}
{"gene": "LEFTY2", "TNF reporter robust z-score": 0.23}
{"gene": "LEFTY2", "TNF reporter robust z-score": 0.25}
{"gene": "EGFL6", "TNF reporter robust z-score": 0.38}
{"gene": "EGFL6", "TNF reporter robust z-score": 2.64}
{"gene": "EGFL6", "TNF reporter robust z-score": 0.94}
{"gene": "EGFL6", "TNF reporter robust z-score": 0.99}
{"gene": "ADAP1", "TNF reporter robust z-score": 0.41}
{"gene": "ADAP1", "TNF reporter robust z-score": 1.73}
{"gene": "ADAP1", "TNF reporter robust z-score": 0.81}
{"gene": "ADAP1", "TNF reporter robust z-score": 1.51}
{"gene": "JADE2", "TNF reporter robust z-score": 0.14}
{"gene": "JADE2", "TNF reporter robust z-score": 0.6}
{"gene": "JADE2", "TNF reporter robust z-score": -0.31}
{"gene": "JADE2", "TNF reporter robust z-score": 0.21}
{"gene": "LILRA6", "TNF reporter robust z-score": 1.84}
{"gene": "LILRA6", "TNF reporter robust z-score": 0.08}
{"gene": "LILRA6", "TNF reporter robust z-score": -0.74}
{"gene": "LILRA6", "TNF reporter robust z-score": 0.87}
{"gene": "GRK1", "TNF reporter robust z-score": -0.26}
{"gene": "GRK1", "TNF reporter robust z-score": -0.67}
{"gene": "GRK1", "TNF reporter robust z-score": -0.42}
{"gene": "GRK1", "TNF reporter robust z-score": 0.19}
{"gene": "KCNA4", "TNF reporter robust z-score": -0.22}
{"gene": "KCNA4", "TNF reporter robust z-score": 0.75}
{"gene": "KCNA4", "TNF reporter robust z-score": "7.92 (active)"}
{"gene": "KCNA4", "TNF reporter robust z-score": 1.78}
{"gene": "TECRL", "TNF reporter robust z-score": -0.87}
{"gene": "TECRL", "TNF reporter robust z-score": 0.27}
{"gene": "TECRL", "TNF reporter robust z-score": 0.39}
{"gene": "TECRL", "TNF reporter robust z-score": 1.31}
{"gene": "PPIL6", "TNF reporter robust z-score": 0.33}
{"gene": "PPIL6", "TNF reporter robust z-score": "3.5 (active)"}
{"gene": "PPIL6", "TNF reporter robust z-score": 0.31}
{"gene": "PPIL6", "TNF reporter robust z-score": 1.98}
{"gene": "GMEB1", "TNF reporter robust z-score": 1.94}
{"gene": "GMEB1", "TNF reporter robust z-score": "2.97 (active)"}
{"gene": "GMEB1", "TNF reporter robust z-score": 1.03}
{"gene": "GMEB1", "TNF reporter robust z-score": 1.43}
{"gene": "ATP11AUN", "TNF reporter robust z-score": 0.82}
{"gene": "ATP11AUN", "TNF reporter robust z-score": 0.22}
{"gene": "ATP11AUN", "TNF reporter robust z-score": 0.6}
{"gene": "ATP11AUN", "TNF reporter robust z-score": 0.19}
{"gene": "SLC26A8", "TNF reporter robust z-score": -1}
{"gene": "SLC26A8", "TNF reporter robust z-score": -0.65}
{"gene": "SLC26A8", "TNF reporter robust z-score": -0.76}
{"gene": "SLC26A8", "TNF reporter robust z-score": -0.96}
{"gene": "ANKRD33", "TNF reporter robust z-score": 1.68}
{"gene": "ANKRD33", "TNF reporter robust z-score": 0.3}
{"gene": "ANKRD33", "TNF reporter robust z-score": -0.63}
{"gene": "ANKRD33", "TNF reporter robust z-score": -0.36}
{"gene": "SORL1", "TNF reporter robust z-score": "-1.69 (active)"}
{"gene": "SORL1", "TNF reporter robust z-score": -0.95}
{"gene": "SORL1", "TNF reporter robust z-score": -1.43}
{"gene": "SORL1", "TNF reporter robust z-score": -1.01}

Targets above whose gene name begins with G or g (8):
{"gene": "GRK1", "TNF reporter robust z-score": -0.26}
{"gene": "GRK1", "TNF reporter robust z-score": -0.67}
{"gene": "GRK1", "TNF reporter robust z-score": -0.42}
{"gene": "GRK1", "TNF reporter robust z-score": 0.19}
{"gene": "GMEB1", "TNF reporter robust z-score": 1.94}
{"gene": "GMEB1", "TNF reporter robust z-score": "2.97 (active)"}
{"gene": "GMEB1", "TNF reporter robust z-score": 1.03}
{"gene": "GMEB1", "TNF reporter robust z-score": 1.43}
